Experimental data reported in the supplement of paper PMC10849652.
The other results are listed elsewhere or left out.

Sequences of proteins named here, by UniProt entry; tags and fusion partners are left off. A change or cut given only in a name is not applied to a line headed by its entry.
UniProt Q9NRF8: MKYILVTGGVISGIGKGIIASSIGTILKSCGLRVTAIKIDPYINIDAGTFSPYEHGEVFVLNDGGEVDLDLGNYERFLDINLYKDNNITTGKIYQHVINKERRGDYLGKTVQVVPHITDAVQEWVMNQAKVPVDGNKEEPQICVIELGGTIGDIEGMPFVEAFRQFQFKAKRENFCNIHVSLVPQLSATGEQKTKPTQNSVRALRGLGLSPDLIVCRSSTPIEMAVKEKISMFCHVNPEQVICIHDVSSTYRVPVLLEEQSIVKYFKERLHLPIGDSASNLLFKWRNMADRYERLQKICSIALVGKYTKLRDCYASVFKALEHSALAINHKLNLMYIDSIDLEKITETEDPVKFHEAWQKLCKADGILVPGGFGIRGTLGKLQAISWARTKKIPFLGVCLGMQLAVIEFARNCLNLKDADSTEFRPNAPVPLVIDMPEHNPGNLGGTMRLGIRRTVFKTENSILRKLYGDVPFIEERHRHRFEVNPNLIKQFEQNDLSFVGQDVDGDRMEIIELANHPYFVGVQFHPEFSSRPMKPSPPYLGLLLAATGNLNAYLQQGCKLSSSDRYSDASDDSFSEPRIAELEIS
UniProt Q9NXE8: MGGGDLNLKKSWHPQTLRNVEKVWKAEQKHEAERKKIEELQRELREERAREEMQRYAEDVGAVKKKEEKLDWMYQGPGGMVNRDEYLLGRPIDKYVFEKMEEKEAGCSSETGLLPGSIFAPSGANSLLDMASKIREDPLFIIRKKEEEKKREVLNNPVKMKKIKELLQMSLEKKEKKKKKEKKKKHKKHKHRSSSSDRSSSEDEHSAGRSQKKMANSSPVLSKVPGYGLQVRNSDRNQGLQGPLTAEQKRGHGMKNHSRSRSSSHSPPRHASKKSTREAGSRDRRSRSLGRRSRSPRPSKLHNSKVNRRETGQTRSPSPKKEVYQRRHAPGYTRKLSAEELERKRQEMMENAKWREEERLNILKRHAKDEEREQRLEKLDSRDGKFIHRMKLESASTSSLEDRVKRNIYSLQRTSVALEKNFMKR
UniProt P14868: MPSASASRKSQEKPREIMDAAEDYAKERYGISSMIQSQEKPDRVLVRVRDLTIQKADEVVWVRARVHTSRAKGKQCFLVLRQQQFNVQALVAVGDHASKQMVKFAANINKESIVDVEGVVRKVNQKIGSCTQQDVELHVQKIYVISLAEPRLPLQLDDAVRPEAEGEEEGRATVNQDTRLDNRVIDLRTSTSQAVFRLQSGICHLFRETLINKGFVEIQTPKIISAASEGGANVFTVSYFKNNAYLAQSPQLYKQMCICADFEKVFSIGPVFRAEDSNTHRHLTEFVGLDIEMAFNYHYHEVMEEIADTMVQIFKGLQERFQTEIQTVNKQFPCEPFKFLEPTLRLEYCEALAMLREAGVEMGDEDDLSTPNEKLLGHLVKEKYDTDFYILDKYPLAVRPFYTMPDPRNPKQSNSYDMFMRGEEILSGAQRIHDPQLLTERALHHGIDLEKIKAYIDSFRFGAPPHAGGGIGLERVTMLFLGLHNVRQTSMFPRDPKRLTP
UniProt P99999: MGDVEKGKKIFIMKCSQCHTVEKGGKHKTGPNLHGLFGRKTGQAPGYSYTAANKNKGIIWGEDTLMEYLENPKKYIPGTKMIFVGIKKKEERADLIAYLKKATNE
UniProt Q6PI48: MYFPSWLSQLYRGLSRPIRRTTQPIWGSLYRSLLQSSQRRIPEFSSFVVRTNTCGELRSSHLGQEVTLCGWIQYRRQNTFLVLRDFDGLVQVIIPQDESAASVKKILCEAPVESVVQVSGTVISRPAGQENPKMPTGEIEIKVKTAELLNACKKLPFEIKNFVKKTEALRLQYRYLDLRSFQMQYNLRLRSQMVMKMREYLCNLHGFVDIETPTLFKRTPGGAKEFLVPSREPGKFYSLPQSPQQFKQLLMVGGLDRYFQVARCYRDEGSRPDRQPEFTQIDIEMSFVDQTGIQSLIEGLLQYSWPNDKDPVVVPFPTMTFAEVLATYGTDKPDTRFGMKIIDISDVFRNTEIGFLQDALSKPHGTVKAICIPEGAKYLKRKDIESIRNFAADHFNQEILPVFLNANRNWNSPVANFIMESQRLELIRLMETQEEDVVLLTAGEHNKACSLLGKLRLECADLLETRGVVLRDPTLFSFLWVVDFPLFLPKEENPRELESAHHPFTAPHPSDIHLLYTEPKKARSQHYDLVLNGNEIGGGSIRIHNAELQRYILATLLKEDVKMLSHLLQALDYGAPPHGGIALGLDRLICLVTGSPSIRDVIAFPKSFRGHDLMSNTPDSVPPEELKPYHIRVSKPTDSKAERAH
UniProt Q8WVC6: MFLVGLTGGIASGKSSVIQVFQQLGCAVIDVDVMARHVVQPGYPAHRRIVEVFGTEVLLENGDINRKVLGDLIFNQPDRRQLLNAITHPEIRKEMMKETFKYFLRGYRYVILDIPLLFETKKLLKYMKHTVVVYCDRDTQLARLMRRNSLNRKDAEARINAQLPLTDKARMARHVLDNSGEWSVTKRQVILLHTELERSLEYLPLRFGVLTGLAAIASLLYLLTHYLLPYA
UniProt Q7L1T6: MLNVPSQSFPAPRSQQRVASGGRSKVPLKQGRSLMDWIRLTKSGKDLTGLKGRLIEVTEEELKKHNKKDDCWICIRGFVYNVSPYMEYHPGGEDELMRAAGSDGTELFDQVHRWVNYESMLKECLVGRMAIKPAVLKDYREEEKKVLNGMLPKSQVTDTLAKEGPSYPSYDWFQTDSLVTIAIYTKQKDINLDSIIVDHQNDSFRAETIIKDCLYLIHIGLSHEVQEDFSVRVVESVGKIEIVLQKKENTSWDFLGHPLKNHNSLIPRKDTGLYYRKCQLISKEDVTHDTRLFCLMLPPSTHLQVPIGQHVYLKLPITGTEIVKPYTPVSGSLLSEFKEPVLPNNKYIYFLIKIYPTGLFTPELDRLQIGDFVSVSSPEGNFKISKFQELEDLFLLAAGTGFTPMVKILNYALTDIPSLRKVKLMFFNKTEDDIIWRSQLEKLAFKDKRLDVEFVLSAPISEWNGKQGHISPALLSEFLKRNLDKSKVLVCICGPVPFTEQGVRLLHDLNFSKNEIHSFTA
UniProt Q9H0L4: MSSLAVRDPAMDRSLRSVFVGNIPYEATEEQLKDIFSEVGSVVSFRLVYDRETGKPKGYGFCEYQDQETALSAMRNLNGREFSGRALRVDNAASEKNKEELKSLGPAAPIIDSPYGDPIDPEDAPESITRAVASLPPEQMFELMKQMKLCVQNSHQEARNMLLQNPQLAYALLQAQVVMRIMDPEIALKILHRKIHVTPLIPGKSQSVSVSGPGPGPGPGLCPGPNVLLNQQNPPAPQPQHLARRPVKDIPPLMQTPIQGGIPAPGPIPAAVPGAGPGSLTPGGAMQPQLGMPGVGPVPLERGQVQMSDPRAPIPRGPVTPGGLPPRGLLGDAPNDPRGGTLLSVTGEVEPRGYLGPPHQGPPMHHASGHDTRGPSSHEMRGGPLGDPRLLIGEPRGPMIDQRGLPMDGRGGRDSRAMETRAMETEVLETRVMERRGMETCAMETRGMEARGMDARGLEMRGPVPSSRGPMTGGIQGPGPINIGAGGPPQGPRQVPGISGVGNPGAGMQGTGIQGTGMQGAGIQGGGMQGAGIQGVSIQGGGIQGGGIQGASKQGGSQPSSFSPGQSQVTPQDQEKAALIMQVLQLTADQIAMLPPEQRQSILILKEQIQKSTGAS
UniProt Q13616, whole entry, looked up: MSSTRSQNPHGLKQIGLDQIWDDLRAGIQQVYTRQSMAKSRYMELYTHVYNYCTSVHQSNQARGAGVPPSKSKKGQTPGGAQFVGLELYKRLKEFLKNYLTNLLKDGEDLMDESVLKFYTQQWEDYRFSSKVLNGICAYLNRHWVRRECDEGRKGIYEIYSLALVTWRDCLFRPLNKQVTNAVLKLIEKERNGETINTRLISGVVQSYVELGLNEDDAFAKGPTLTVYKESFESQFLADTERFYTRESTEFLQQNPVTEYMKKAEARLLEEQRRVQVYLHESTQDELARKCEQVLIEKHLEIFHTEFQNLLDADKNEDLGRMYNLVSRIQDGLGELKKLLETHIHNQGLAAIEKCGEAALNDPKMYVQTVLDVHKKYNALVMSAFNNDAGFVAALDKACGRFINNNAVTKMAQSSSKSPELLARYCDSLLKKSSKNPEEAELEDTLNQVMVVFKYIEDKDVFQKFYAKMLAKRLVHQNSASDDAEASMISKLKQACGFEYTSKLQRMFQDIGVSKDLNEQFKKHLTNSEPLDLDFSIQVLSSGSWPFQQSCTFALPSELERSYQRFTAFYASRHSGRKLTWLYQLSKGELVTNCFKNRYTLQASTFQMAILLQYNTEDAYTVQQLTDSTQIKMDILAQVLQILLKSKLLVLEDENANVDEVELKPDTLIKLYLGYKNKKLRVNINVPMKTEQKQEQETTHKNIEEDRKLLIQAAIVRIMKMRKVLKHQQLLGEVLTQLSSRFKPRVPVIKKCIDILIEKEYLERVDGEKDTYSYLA
UniProt P04080: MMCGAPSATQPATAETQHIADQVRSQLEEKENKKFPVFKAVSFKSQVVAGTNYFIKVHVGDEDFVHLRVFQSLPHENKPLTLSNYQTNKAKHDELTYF
UniProt Q13618, whole entry, looked up: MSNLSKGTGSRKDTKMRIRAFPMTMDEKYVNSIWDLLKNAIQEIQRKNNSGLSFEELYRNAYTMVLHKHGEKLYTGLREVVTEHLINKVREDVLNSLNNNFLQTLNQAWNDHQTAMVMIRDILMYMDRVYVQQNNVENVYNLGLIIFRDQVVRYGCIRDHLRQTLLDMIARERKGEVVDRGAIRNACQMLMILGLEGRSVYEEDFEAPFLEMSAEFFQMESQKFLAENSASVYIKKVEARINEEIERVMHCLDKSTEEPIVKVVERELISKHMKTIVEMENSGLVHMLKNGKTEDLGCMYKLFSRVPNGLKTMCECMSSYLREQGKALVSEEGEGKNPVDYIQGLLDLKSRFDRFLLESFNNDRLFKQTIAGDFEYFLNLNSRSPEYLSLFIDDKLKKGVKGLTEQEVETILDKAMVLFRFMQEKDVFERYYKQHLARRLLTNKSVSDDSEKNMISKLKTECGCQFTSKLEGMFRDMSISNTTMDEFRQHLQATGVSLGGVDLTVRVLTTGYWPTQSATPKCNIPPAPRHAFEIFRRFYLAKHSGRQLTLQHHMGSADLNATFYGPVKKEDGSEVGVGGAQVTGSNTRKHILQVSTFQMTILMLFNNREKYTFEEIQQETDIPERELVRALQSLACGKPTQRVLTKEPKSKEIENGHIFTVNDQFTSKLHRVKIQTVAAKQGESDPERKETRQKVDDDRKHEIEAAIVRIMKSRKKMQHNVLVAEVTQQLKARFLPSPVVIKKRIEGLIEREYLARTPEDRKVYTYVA
UniProt Q1MSJ5: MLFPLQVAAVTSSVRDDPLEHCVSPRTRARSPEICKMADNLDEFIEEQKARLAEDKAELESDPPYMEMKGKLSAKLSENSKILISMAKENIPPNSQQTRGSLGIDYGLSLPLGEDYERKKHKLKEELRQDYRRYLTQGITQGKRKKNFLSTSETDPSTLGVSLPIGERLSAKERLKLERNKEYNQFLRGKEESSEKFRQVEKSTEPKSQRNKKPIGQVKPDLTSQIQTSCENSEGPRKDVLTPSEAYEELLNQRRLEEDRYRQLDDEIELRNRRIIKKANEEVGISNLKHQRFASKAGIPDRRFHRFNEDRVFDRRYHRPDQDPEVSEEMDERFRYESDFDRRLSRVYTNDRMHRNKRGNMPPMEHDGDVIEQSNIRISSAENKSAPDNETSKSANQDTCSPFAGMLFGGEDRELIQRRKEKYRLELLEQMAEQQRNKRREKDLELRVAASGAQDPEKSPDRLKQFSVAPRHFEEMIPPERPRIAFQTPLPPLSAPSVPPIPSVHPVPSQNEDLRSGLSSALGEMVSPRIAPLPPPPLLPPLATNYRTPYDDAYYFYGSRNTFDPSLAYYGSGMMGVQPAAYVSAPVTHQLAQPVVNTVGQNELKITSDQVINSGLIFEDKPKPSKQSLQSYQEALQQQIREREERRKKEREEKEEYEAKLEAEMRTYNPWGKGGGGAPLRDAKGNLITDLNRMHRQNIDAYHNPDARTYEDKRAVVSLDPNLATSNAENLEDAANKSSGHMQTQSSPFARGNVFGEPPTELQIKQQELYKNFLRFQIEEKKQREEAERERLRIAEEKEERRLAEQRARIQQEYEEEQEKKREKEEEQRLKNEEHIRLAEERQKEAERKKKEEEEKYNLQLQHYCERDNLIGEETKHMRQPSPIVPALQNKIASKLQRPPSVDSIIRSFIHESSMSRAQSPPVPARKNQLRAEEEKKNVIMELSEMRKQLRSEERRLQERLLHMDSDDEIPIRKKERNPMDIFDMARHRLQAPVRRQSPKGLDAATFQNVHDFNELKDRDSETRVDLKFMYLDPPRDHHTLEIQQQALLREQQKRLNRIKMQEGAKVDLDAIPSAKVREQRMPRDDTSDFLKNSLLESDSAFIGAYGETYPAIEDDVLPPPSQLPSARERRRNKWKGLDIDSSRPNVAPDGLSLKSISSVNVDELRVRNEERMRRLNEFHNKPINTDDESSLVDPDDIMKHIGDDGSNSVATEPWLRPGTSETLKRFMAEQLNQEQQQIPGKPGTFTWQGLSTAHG

compound: C1=CC2=C(C=CC(=C2)/C=C\3/C(=O)NC(=NCC4=CC=CS4)S3)N=C1; assay: log2 fold change, soluble protein after heating vs DMSO (PISA); higher = thermal stabilisation; K562 cells, 10 uM, 30 min; active = over 0.2 and 3.5 SD of the protein, either way, in both replicates (recomputed)
Procedure, shortened: (§1)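 Values are thermal stability changes relative to control samples and are taken from duplicates. They are stated as log2 fold changes. Before quantification by TMTpro 16plex LC-MS/MS with equalised channel sums, K562 cells at 2×10^6 cells/mL were treated with 10 μM compound for 30 min, heated in aliquots for 3 min across 48°C-58°C, pooled, extracted in PBS with 0.5% NP-40 at 4°C, and centrifuged at 21,000xg for 90 min to give the soluble supernatant.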

log2 fold change, inactive:
CTPS2 (UniProt Q9NRF8) 0.017
CWC25 (UniProt Q9NXE8) -0.139
CYFIP2 (UniProt Q96F07) 0.045
CZIB (UniProt Q9NWV4) -0.001
DARS (UniProt P14868) -0.026
CYCS (UniProt P99999) -0.002
DARS2 (UniProt Q6PI48) -0.031
DAP3 (UniProt P51398) -0.061
CTBP1 (UniProt Q13363) 0.02
DCTN2 isoform 2 (UniProt Q13561) 0.007
CSTF1 (UniProt Q05048) 0.002
DCAKD (UniProt Q8WVC6) 0.082
DCK (UniProt P27707) -0.003
CYB5R4 (UniProt Q7L1T6) 0.049
CWF19L1 (UniProt Q69YN2) 0.008
DCAF11 (UniProt Q8TEB1) 0.14
CSTF2T (UniProt Q9H0L4) 0.03
CTU2 (UniProt Q2VPK5) 0.022
CUL2 isoform 2 (UniProt Q13617) 0.043
CTNNA2 (UniProt P26232) 0
CYB5R2 (UniProt Q6BCY4) 0.038
DCPS (UniProt Q96C86) -0.035
CTIF isoform 2 (UniProt O43310) 0.073
CUL1 (UniProt Q13616) -0.021
CTCF (UniProt P49711) -0.014
CSTB (UniProt P04080) 0.115
CUL3 (UniProt Q13618) 0.008
CTH (UniProt P32929) -0.06
CUL4B (UniProt K4DI93) 0.009
CYP20A1 (UniProt Q6UW02) 0.035
DCTN6 (UniProt O00399) 0.007
CYHR1 (UniProt E9PJD7) 0.011
CUTC (UniProt Q9NTM9) 0.115
DCP1A (UniProt Q9NPI6) 0.048
CSPP1 (UniProt Q1MSJ5) 0.183
DCAF1 (UniProt Q9Y4B6) 0.042
CT45A10 (UniProt P0DMU9) -0.079
CYB5R1 (UniProt Q9UHQ9) 0.073
DCTN3 (UniProt O75935) 0.001

compound: C1=CC2=NC=CN=C2C=C1/C=C/3\C(=O)NC(=O)S3; assay: as above
Procedure, shortened: as §1

log2 fold change, inactive:
CTPS2 (UniProt Q9NRF8) 0.038
CWC25 (UniProt Q9NXE8) -0.028
CYFIP2 (UniProt Q96F07) 0.017
CZIB (UniProt Q9NWV4) 0.021
DARS (UniProt P14868) 0.011
CYCS (UniProt P99999) -0.014
DARS2 (UniProt Q6PI48) 0.055
DAP3 (UniProt P51398) -0.031
CTBP1 (UniProt Q13363) -0.007
DCTN2 isoform 2 (UniProt Q13561) 0.024
CSTF1 (UniProt Q05048) 0.035
DCAKD (UniProt Q8WVC6) 0.008
DCK (UniProt P27707) 0.023
CYB5R4 (UniProt Q7L1T6) -0.01
CWF19L1 (UniProt Q69YN2) 0.03
DCAF11 (UniProt Q8TEB1) 0.051
CSTF2T (UniProt Q9H0L4) 0.03
CTU2 (UniProt Q2VPK5) 0.008
CUL2 isoform 2 (UniProt Q13617) 0.024
CTNNA2 (UniProt P26232) -0.026
CYB5R2 (UniProt Q6BCY4) 0.018
DCPS (UniProt Q96C86) 0.003
CTIF isoform 2 (UniProt O43310) 0.116
CUL1 (UniProt Q13616) 0.024
CTCF (UniProt P49711) 0.084
CSTB (UniProt P04080) -0.028
CUL3 (UniProt Q13618) 0.011
CTH (UniProt P32929) 0.001
CUL4B (UniProt K4DI93) -0.002
CYP20A1 (UniProt Q6UW02) 0.082
DCTN6 (UniProt O00399) 0.026
CYHR1 (UniProt E9PJD7) 0.057
CUTC (UniProt Q9NTM9) -0.022
DCP1A (UniProt Q9NPI6) 0.022
CSPP1 (UniProt Q1MSJ5) 0.042
DCAF1 (UniProt Q9Y4B6) 0
CT45A10 (UniProt P0DMU9) 0.024
CYB5R1 (UniProt Q9UHQ9) 0.02
DCTN3 (UniProt O75935) 0.004
